Assay results as given in the supplement of paper PMC12889115.
The list shows a part of the results. These are raw signals, not scaled to a control.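 In the initial screen, polymyxin B was used at a concentration that permeabilizes Salmonella's outer membrane but not its inner membrane. Maximum growth was set by DMSO wells with or without polymyxin B. Since plates varied, data were ranked per plate, and compounds giving the lowest OD600 advanced as hits.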

Test system: Salmonella enterica serovar Typhimurium SL1344
Assay: bacterial growth OD600 after 18 h with compound and polymyxin B; higher = more bacterial growth (less inhibition)
Details: 50 µM, Mueller-Hinton broth

SMILES | bacterial growth OD600 (polymyxin B 1 µg/mL) | bacterial growth OD600 (polymyxin B 0.75 µg/mL)
O=C(NCc1cccnc1Oc1ccccc1)C1CC(=O)N(C2CC2)C1 (centres undefined) | 1.01 | –
O=C(CC1(c2cccc(C(F)(F)F)c2)CC(=O)N(C2CC2)C1=O)N(CC1CCC1)CC1CCCO1 (centres undefined) | – | 0.002
CCN(CC)CCN(CC)C(=O)CCc1nnc(-c2ccc3c(c2)OCO3)o1 | – | 0.986
CN(Cc1ccccn1)c1nc2nonc2nc1NCc1ccccc1 | – | 0.549
CCOC(=O)C1(Cc2ccc(OC)cc2)CCN(C(=O)c2ccc(C(=O)OC)cc2)CC1 | – | 0.662
CN(C)CCN1C(=O)NC(Cc2cccc(F)c2)(C2CCN(C(=O)C3(C)CCCCC3)CC2)C1=O (centres undefined) | – | 0.836
COc1ccc(-c2ccccc2NC(=O)C2CCCN2Cc2nccn2C)cc1 (centres undefined) | – | 0.705
CN(C(=O)c1ccn(C)n1)C(Cc1ccccc1)C1CCN(C(=O)c2ccc3c(c2)OCCO3)CC1 (centres undefined) | – | 0.886
NC(=O)C1CCCN(Cc2c(C(=O)N3CCc4ccccc4C3)nc3ccc(Cl)cn23)C1 (centres undefined) | – | 0.83
COc1cccc(CC2(CO)CCCN(Cc3cccc(OC)c3OC)C2)c1 (centres undefined) | 0.799 | –
CSCCC(=O)N1CCCC(N2CCN(c3cccc(C(F)(F)F)c3)CC2)C1 (centres undefined) | 0.922 | –
CCn1ccnc1CN1CCCC(CNC(=O)C2(c3ccc(Cl)cc3)CC2)C1 (centres undefined) | 0.81 | –
CC(C)Cc1cn[nH]c1C1CCCN(Cc2cc(Cl)ccc2O)C1 (centres undefined) | – | 0.031
Cc1nc(N(C)C2CCCCC2)ncc1C(C)NC(=O)c1ccoc1C (centres undefined) | 0.85 | –
CO[C@H]1[C@H](NC(=O)c2ccncc2)c2ccccc2C12CCN(C(=O)CCc1ccc(C)cc1)CC2 | – | 0.851
Cc1cc(C)c(C(=O)NCc2cccnc2-n2cnc3ccccc32)c(=O)[nH]1 | 1.03 | –
O=C(CCCc1cccs1)NC1CCCN(CCc2ccccc2)C1 (centres undefined) | 0.877 | –
COc1ccc2[nH]c3c(c2c1)CN(C(=O)Cn1nnnc1CN1CCCC1)CC3 | – | 0.82
O=C(c1cn(Cc2cccc3ccccc23)nn1)N1CCN(C(=O)c2cccs2)CC1 | 0.912 | –

Entries of single compounds, looked up by structure. Order of values: bacterial growth OD600 (polymyxin B 1 µg/mL) | bacterial growth OD600 (polymyxin B 0.75 µg/mL)
CCn1ccnc1CN1CCCC(CNC(=O)C2(c3ccc(Cl)cc3)CC2)C1 (centres undefined) in the list: 0.81 | –
CCN(CC)CCN(CC)C(=O)CCc1nnc(-c2ccc3c(c2)OCO3)o1 in the list: – | 0.986
